Results are given in words; binding and its absence hold for the method and conditions named. In cells and extracts the contact can be indirect. Some entries that bind do so weakly or less than the wild type. For some assays here: Sequences can lack the tags named with a protein.

Amino acid sequences for entries named in this document (tags omitted). A change or cut given only in a name is not applied to a line headed by its entry.
UniProt P49959: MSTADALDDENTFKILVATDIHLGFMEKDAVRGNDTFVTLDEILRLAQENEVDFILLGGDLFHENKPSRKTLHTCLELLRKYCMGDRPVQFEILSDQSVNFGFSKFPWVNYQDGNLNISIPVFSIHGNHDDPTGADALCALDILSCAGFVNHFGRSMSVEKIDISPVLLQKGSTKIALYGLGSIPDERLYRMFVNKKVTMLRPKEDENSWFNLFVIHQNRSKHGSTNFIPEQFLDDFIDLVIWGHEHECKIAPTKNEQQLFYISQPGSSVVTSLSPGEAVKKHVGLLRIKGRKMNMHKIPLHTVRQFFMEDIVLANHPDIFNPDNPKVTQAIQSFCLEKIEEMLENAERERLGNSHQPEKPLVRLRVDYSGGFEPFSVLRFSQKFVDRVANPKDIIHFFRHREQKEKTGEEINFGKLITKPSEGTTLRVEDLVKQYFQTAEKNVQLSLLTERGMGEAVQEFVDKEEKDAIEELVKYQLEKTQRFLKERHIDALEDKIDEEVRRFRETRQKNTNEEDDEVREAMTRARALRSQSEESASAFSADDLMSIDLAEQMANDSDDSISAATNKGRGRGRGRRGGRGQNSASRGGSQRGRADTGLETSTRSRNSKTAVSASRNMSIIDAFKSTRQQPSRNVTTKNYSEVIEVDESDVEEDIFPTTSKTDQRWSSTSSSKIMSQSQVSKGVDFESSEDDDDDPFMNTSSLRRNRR

Our source for the binding values is publication PMC9098523.

Assay [1] has as its target T1, MRNIP-GFP (purified recombinant protein, forms droplets in vitro) (human) (UniProt Q6NTE8).
T1 sequence: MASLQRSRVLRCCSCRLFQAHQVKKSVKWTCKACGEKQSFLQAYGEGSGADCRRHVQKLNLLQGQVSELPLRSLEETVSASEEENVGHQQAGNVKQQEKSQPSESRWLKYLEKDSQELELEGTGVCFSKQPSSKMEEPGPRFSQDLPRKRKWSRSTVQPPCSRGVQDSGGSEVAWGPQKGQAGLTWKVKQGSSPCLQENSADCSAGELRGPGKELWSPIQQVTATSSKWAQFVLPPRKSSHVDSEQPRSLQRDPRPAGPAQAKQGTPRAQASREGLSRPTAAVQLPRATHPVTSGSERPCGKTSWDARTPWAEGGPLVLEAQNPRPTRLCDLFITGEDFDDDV
The assay is described as follows: co-sedimentation; droplet pelleting: MRNIP-GFP incubated with HeLa nuclear protein (1 μg/μL; legend: 10 µg) in 20 mM Tris-HCl pH 7.4, 150 mM NaCl, 20 min at 20 °C, centrifuged at 10,000 x g, 4 °C, 10 min; pellet immunoblotted; only the target purified. For orientation: Immunoblotting shows a protein as a band on a membrane.

Assay [2] addresses T2, IDR1-deleted MRNIP (co-immunoprecipitation) (human) (UniProt Q6NTE8).
T2 sequence: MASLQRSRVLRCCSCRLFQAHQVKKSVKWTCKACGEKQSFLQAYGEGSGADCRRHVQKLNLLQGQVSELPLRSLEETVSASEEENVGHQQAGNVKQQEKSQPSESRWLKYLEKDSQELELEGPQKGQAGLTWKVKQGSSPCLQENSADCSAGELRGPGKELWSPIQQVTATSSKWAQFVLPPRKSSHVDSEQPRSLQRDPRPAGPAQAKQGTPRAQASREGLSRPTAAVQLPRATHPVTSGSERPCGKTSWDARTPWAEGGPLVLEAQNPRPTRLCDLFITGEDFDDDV
The assay is described as follows: co-IP; co-immunoprecipitation of wildtype or IDR1-deleted MRNIP with MRE11 / MRN complex; cells, bait and conditions not described.

Turning to “MRE11/RAD50/NBS1 (MRN) complex of HeLa nuclear extract (from UniProt P49959 1-708; Q92878 1-1312; O60934 1-754)”, the binding result in assay [1] was “binds”.

Consider “MRN complex (co-immunoprecipitation) (from UniProt P49959 1-708; Q92878 1-1312; O60934 1-754)”, for which the binding result in assay [2] is reported as “no binding”.
